Experimental data reported in publication PMC7347577.
These are yes or no findings as the source states them, for the method shown. In cells and extracts the contact can be indirect. Some binding calls cover weakened binding; strength is not graded here.

Amino acid sequences for entries named in this document (tags omitted).
UniProt P10126: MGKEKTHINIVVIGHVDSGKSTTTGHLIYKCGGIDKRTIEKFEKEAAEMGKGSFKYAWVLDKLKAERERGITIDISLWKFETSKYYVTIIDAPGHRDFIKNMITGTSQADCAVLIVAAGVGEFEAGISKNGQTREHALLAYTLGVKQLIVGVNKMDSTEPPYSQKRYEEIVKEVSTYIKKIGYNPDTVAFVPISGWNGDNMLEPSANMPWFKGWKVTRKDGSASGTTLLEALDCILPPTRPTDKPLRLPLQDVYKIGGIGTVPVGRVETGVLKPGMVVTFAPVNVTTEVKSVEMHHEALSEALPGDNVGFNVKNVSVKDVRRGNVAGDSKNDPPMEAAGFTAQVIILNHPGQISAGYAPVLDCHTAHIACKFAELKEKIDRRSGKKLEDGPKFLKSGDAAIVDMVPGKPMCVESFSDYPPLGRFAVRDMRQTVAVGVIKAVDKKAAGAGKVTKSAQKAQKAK
UniProt P62630: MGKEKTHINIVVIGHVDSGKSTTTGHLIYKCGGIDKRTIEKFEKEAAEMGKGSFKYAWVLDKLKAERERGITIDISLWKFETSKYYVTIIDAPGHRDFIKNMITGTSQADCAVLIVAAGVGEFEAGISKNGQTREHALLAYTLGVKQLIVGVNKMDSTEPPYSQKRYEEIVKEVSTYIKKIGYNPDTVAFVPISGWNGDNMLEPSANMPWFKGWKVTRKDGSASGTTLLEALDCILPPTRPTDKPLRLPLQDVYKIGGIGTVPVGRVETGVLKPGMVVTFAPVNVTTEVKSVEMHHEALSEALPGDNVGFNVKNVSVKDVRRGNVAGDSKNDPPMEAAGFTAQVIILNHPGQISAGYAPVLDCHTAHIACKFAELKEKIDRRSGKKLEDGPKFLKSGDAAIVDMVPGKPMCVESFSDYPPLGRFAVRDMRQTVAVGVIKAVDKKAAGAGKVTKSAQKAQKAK
UniProt P52631: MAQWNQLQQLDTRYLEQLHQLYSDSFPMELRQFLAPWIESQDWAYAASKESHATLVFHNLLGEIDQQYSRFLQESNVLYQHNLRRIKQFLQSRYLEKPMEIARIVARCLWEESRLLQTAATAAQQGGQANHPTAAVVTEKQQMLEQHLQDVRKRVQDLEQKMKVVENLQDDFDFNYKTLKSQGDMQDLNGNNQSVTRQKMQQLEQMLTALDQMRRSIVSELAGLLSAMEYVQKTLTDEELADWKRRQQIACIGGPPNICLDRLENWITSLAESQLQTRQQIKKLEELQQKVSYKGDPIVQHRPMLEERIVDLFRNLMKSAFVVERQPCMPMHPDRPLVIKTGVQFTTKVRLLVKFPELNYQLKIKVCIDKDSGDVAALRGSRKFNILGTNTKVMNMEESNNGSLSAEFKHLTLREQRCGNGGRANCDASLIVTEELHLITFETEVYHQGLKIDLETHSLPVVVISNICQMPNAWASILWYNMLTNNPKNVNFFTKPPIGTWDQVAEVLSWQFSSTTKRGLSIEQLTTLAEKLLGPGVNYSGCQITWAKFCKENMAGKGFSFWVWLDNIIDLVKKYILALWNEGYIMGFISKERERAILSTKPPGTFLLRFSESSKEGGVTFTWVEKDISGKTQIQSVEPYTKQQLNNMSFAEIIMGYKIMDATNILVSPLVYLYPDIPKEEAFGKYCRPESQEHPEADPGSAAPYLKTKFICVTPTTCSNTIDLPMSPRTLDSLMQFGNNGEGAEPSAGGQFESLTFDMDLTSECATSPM
UniProt O55170: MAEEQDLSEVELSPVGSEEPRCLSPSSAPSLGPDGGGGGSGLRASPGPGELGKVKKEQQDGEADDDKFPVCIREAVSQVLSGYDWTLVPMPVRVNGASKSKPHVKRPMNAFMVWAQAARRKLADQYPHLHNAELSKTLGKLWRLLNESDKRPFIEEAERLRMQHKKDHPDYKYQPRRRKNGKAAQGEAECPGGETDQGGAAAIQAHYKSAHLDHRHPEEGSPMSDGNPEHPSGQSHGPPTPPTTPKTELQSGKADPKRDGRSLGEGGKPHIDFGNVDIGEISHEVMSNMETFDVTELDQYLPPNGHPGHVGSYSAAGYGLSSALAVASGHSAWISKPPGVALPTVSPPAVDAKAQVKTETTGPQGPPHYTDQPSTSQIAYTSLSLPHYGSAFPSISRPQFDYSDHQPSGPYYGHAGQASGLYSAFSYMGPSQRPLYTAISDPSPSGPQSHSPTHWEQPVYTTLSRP
UniProt P70288: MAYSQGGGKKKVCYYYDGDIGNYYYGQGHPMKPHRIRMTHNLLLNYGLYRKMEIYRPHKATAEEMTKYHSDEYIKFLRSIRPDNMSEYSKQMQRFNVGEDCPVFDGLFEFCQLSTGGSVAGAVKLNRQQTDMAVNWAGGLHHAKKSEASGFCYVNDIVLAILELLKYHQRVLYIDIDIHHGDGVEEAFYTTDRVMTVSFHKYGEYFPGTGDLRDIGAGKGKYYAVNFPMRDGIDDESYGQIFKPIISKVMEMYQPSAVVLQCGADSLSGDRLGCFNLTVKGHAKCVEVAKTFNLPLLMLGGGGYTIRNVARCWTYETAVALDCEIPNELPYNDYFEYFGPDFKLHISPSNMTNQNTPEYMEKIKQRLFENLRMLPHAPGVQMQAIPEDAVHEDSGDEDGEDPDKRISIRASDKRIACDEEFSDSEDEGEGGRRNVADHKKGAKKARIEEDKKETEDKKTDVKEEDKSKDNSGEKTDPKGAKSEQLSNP
UniProt Q99MK2: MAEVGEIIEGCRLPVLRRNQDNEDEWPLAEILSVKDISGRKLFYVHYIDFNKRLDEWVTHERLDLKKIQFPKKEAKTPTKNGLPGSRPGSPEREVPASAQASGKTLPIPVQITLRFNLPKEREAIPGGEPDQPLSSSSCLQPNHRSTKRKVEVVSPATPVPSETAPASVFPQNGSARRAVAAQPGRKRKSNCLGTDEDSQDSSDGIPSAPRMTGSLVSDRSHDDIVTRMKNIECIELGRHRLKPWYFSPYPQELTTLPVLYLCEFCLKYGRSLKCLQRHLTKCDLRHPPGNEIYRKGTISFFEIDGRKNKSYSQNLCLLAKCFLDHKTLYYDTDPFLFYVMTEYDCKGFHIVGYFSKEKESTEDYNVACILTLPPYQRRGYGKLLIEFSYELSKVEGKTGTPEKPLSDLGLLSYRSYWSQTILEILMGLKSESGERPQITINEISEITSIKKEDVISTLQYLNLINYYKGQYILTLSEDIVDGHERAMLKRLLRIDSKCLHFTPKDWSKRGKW

Key:
[1] = molecular target: mouse eEF1A1-turbo GFP (C-ter), overexpressed in primary rat Schwann cells (mouse) (UniProt P10126); experiment: co-IP; IP of GFP, Western blot of Sox10; nuclear and cytoplasmic fractions of rat Schwann cells transfected with eEF1A1-GFP or GFP and induced to de-differentiate for 1 day
[2] = molecular target: eukaryotic elongation factor 1A1 (eEF1A1), endogenous in primary rat Schwann cells (rat (endogenous in primary Schwann cells)) (UniProt P62630); experiment: co-IP; IP of eEF1A1, Western blot of Tip60 and Stat3; lysates of rat Schwann cells induced to de-differentiate for 1 day, treated with the Tip60 inhibitor TH1834 or vehicle, or transduced with Stat3 shRNA or control shRNA lentiviruses
[3] = molecular target: eukaryotic elongation factor 1A1 (eEF1A1), endogenous in mouse sciatic nerve (mouse (endogenous in sciatic nerve)) (UniProt P10126); experiment: co-IP; IP of eEF1A1 (GFP antibody as control), Western blot of HDAC2; pools of two adult mouse crushed or unlesioned contralateral sciatic nerves at 3dpl; RIPA buffer
[4] = molecular target: Stat3, endogenous in primary rat Schwann cells (rat (endogenous in primary Schwann cells)) (UniProt P52631); experiment: co-IP; IP of Stat3 (Flag antibody as control), Western blot of Tip60; lysates of rat Schwann cells induced to de-differentiate for 1 day

## Sox10, endogenous in primary rat Schwann cells (from UniProt O55170 1-466)
[1]
  binding: binds

## Stat3, endogenous in primary rat Schwann cells (from UniProt P52631 1-770)
[2]
  binding: binds

## histone deacetylase HDAC2, endogenous in mouse sciatic nerve (from UniProt P70288 1-488) (enzyme)
[3]
  binding: binds

## lysine acetyltransferase Tip60, endogenous in primary rat Schwann cells (from UniProt Q99MK2 1-513) (enzyme)
[4]
  binding: binds
[2]
  binding: binds
